Some of the results follow. The data scatter; read single values as rough.
compound: ClCC(=O)N[C@H]1CCCc2ccccc12; experiment: log2 mean competition ratio of IA-DTB cysteine labelling (DMSO/compound) (log2 ratio); higher = stronger cysteine engagement by compound; details: 50 µM; treatment time: 4 h; cell line lysate: HEK293T
Method: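 IA-DTB competitive cysteine chemoproteomics in HEK293T RIPA lysate. Lysates were treated with compound 29 or 30 at 50 or 200 µM for 4 h, then IA-DTB (500 µM, 1 h), trypsin-digested, NeutrAvidin-enriched and analysed by diaPASEF. Competition ratio = intensity DMSO / intensity compound (n=4 treated, n=64 DMSO); binding: mean log2 CR ≥ 1 and p ≤ 0.05 plus QC filters. Target is the cysteine site.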

Protein sequences, listed by entry. Tags and fused reporters are not part of them. Lines headed by an entry give the natural chain unless they say otherwise; changes in a name come on top.
UniProt Q27J81, whole entry, looked up: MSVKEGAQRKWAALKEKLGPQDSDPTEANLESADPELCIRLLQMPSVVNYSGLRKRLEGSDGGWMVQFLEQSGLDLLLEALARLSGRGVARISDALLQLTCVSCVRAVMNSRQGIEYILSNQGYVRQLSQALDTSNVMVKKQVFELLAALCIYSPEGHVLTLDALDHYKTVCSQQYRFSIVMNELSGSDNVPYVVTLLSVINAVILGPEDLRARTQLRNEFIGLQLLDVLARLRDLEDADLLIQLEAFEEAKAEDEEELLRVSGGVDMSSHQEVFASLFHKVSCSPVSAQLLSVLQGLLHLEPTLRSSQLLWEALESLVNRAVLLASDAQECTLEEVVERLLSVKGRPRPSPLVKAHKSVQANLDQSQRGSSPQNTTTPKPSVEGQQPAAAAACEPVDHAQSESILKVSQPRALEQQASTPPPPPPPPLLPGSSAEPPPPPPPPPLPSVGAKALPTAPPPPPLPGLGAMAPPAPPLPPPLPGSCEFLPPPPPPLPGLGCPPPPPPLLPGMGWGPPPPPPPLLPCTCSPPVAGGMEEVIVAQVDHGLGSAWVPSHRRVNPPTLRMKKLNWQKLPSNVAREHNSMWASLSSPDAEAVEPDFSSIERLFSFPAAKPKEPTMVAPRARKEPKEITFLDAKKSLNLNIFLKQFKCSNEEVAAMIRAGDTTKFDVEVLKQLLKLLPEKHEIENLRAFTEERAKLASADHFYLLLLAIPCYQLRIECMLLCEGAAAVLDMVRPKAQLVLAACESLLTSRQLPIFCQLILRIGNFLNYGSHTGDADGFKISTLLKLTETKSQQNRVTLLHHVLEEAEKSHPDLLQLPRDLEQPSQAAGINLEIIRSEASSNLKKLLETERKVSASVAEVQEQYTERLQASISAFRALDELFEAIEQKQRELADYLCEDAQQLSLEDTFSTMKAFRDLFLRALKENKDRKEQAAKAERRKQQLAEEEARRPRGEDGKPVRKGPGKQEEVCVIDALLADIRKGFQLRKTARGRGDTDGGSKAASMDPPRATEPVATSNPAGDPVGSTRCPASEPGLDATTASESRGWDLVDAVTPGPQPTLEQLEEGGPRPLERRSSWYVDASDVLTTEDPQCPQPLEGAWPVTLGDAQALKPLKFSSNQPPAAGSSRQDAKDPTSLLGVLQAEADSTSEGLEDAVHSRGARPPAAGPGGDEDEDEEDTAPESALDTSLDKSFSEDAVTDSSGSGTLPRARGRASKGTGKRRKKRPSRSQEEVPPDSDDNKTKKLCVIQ
UniProt Q9NZI8: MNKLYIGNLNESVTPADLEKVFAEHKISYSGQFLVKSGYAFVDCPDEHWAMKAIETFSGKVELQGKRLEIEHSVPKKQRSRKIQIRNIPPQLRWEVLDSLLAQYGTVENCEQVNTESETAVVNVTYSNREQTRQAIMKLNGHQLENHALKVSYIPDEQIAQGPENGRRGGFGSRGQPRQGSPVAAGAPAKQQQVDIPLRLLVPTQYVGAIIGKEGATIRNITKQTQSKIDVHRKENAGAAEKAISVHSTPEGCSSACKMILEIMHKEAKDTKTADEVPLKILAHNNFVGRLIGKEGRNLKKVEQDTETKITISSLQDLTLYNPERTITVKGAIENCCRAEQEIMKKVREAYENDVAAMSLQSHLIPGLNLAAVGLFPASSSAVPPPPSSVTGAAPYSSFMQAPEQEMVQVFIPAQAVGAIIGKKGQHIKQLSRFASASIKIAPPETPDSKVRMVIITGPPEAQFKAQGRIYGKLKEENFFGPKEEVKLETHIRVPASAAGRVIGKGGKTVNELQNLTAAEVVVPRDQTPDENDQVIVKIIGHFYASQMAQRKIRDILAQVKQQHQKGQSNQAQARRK
UniProt Q8N201: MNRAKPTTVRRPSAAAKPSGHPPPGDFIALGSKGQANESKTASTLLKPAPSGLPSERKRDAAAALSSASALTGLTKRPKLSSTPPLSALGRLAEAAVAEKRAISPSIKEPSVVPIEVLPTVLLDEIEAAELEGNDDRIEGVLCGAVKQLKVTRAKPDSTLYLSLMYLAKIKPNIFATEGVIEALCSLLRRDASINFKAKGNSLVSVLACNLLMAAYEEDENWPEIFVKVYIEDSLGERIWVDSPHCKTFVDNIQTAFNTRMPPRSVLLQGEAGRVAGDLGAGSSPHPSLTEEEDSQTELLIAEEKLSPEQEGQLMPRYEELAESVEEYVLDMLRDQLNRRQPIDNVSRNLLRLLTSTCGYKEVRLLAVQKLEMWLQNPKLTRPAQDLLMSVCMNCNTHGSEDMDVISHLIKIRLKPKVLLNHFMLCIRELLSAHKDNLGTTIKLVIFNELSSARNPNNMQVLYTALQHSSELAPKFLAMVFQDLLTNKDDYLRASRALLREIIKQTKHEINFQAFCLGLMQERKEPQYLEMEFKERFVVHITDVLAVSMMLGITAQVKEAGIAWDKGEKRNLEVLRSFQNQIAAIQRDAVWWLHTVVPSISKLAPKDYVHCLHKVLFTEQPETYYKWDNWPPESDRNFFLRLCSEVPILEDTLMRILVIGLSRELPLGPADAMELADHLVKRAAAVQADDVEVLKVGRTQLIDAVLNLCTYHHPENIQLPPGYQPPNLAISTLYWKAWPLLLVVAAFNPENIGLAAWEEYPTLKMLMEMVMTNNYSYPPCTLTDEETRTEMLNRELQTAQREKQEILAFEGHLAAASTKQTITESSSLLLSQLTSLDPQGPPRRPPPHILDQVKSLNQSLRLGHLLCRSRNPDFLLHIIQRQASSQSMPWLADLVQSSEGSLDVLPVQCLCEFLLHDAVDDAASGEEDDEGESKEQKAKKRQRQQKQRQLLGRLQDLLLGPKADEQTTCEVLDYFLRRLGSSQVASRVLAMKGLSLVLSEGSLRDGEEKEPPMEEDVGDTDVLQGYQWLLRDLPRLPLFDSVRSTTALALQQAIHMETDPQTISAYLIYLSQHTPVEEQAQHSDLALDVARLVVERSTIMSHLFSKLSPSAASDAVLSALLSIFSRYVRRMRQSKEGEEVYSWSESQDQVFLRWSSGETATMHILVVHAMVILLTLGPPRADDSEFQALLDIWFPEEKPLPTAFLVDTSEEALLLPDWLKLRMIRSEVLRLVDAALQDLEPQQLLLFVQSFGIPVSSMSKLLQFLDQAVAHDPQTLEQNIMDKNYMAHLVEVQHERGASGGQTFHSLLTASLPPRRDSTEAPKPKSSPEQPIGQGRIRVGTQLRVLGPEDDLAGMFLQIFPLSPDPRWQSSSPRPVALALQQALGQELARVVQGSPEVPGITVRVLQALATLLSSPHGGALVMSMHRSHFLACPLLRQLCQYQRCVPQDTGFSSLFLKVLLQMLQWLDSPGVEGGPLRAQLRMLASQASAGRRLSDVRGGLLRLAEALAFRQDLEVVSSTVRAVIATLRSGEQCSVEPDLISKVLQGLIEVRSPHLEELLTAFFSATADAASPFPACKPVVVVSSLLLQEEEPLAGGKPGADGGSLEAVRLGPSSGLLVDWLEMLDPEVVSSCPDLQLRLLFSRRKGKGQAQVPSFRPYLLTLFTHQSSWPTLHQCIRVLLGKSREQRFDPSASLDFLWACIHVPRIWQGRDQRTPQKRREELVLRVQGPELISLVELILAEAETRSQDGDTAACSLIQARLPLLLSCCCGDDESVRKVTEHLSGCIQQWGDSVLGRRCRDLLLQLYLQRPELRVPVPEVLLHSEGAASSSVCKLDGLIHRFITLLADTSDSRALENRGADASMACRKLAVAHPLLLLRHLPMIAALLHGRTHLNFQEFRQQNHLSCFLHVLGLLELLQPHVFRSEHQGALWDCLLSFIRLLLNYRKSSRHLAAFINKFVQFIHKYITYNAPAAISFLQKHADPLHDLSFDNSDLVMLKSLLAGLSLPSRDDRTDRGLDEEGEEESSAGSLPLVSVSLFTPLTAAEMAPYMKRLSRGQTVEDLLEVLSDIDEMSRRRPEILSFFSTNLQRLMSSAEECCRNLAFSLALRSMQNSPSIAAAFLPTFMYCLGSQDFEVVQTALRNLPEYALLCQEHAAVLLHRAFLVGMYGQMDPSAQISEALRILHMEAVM
UniProt P15260: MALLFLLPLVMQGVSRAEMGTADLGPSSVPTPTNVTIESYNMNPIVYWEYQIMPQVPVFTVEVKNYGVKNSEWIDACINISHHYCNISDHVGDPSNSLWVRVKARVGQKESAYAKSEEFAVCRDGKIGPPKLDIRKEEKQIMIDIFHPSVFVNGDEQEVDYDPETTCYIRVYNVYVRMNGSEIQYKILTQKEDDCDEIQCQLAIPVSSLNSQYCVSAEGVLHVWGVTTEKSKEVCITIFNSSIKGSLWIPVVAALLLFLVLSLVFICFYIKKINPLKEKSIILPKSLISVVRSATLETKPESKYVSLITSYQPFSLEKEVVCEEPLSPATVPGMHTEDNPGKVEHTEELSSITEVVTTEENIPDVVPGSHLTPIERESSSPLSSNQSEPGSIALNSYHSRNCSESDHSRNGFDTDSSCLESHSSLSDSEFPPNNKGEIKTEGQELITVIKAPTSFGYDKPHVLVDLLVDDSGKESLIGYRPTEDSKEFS
UniProt Q96HW7, whole entry, looked up: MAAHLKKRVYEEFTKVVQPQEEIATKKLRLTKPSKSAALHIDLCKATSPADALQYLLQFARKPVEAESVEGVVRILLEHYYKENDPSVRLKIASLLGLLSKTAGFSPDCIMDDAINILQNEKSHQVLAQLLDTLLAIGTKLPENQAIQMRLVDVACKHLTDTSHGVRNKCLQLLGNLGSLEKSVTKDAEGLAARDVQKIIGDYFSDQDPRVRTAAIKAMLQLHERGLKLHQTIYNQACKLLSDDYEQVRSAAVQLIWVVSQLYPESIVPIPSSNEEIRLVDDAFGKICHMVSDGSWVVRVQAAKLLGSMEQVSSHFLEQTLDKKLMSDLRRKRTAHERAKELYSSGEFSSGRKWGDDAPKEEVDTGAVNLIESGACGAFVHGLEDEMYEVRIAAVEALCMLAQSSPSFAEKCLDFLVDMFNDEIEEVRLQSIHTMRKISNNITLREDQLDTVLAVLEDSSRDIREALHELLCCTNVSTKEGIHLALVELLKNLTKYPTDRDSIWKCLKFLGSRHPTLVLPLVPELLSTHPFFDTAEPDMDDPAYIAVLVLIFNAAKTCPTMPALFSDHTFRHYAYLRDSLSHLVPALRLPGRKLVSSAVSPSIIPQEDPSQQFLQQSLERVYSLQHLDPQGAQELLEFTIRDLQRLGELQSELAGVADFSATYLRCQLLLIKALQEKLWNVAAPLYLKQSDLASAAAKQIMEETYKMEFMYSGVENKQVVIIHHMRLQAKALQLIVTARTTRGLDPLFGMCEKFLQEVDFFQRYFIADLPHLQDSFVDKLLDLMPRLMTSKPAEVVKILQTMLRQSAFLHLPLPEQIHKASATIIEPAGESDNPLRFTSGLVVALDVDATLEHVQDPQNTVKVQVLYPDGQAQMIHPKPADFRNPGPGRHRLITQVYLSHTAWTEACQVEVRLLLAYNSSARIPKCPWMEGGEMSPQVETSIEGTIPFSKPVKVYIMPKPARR
UniProt Q9H0C8: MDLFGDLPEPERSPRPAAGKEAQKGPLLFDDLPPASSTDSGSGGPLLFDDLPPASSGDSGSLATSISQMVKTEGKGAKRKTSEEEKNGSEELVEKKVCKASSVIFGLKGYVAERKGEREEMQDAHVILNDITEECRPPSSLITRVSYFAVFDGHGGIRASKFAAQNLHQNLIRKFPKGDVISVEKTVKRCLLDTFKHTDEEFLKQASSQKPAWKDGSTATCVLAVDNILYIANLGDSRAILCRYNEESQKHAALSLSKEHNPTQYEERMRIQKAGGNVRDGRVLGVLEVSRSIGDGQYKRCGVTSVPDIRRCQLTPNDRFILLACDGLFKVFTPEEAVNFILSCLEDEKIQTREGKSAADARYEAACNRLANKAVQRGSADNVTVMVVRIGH
UniProt O60921: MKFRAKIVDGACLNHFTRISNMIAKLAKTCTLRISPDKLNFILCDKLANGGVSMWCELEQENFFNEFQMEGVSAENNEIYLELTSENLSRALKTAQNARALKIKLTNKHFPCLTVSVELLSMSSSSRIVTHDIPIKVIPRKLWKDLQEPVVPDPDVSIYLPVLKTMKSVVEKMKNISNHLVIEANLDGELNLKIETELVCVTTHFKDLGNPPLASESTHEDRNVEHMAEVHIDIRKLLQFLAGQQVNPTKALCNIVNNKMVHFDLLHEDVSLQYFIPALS
UniProt Q9NWY4: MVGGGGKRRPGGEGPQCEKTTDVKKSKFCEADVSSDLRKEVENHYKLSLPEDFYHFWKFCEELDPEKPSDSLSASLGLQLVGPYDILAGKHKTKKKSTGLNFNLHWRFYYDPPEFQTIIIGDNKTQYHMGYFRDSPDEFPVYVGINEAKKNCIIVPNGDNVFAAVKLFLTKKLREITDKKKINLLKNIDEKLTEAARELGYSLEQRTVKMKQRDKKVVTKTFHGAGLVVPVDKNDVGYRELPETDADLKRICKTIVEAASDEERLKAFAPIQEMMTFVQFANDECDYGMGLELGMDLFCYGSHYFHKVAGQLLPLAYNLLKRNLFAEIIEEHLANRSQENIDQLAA

| Target | log2 mean competition ratio |
| --- | --- |
| HPS6 C692 (UniProt Q86YV9) | -0.502 |
| IPO7 C415 (UniProt O95373) | -0.116 |
| HUWE1 C2721 | -0.0746 |
| HTATSF1 C512 (UniProt O43719) | -0.249 |
| INF2 C650 (UniProt Q27J81) | -0.771 |
| HUWE1 C2666 | -0.103 |
| INPP4A C230 (UniProt Q96PE3) | 0.0714 |
| IGF2BP1 C44 (UniProt Q9NZI8) | -0.00625 |
| IGF2BP3 C44 (UniProt O00425) | 0.00357 |
| HSF1 C103 (UniProt Q00613) | -0.305 |
| HUWE1 C3658 | 0.136 |
| IGF2R C1856 (UniProt P11717) | 0.0397 |
| INTS1 C1755 (UniProt Q8N201) | 0.233 |
| IFNGR1 C122 (UniProt P15260) | 0.073 |
| INTS4 C751 (UniProt Q96HW7) | -0.278 |
| ILKAP C312 (UniProt Q9H0C8) | 0.0489 |
| INTS12 C379 (UniProt Q96CB8) | 0.0257 |
| HSPA9 C366 (UniProt P38646) | 0.214 |
| HUS1 C44 (UniProt O60921) | 0.36 |
| HPF1 C17 (UniProt Q9NWY4) | -0.271 |

same assay, conditions: 200 µM; treatment time: 4 h; cell line lysate: HEK293T

| Target | log2 mean competition ratio |
| --- | --- |
| HPS6 C692 (UniProt Q86YV9) | 0.255 |
| IPO7 C415 (UniProt O95373) | -0.378 |
| HUWE1 C2721 | -0.113 |
| HTATSF1 C512 (UniProt O43719) | 0.149 |
| INF2 C650 (UniProt Q27J81) | -0.00705 |
| HUWE1 C2666 | -0.0713 |
| INPP4A C230 (UniProt Q96PE3) | -0.141 |
| IGF2BP1 C44 (UniProt Q9NZI8) | -0.0702 |
| IGF2BP3 C44 (UniProt O00425) | 0.14 |
| HSF1 C103 (UniProt Q00613) | 0.585 |
| HUWE1 C3658 | -0.164 |
| IGF2R C1856 (UniProt P11717) | 0.514 |
| INTS1 C1755 (UniProt Q8N201) | 0.121 |
| IFNGR1 C122 (UniProt P15260) | 0.02 |
| INTS4 C751 (UniProt Q96HW7) | 0.0501 |
| ILKAP C312 (UniProt Q9H0C8) | -0.133 |
| INTS12 C379 (UniProt Q96CB8) | 0.0933 |
| HSPA9 C366 (UniProt P38646) | -0.112 |
| HUS1 C44 (UniProt O60921) | 0.549 |
| HPF1 C17 (UniProt Q9NWY4) | 0.508 |
